This passage reports binding results from PMC5834258, “Selective targeting of collagen IV in the cancer cell microenvironment reduces tumor burden” (Oncotarget, 2018).

For assay [1], the target named is T1, FLAG-GPBP-2/CERT fused to the binding domain of GAL4 (pGBT9-FLAG-GPBP-2) (UniProt Q9Y5P4).
T1 sequence: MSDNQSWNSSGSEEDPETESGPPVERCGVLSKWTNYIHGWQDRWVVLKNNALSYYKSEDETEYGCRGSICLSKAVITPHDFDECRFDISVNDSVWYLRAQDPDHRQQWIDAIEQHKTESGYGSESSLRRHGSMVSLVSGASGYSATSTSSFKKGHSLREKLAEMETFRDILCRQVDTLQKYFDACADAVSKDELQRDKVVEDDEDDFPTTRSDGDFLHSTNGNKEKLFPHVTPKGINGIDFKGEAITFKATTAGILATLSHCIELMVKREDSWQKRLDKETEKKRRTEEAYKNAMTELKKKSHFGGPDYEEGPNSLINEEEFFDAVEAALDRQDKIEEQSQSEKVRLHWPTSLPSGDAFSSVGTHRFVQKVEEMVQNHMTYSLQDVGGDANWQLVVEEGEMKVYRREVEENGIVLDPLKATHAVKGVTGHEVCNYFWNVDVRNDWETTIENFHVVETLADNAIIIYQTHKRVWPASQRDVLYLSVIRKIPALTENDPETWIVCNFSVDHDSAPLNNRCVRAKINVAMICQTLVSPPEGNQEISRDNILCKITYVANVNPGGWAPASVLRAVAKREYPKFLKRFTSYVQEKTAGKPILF
Description: two-hybrid; yeast two-hybrid, colony-lift filter assays (blue colour = +); GPBP-2/CERT as bait (pGBT9), GPBP and mutants in pGAD424.

In assay [2] the target is T2, polypeptide representing GIP130 (GPBP-interacting protein 130-kDa), residues 86-350, GAL4 fusion (UniProt Q4L180).
T2 sequence: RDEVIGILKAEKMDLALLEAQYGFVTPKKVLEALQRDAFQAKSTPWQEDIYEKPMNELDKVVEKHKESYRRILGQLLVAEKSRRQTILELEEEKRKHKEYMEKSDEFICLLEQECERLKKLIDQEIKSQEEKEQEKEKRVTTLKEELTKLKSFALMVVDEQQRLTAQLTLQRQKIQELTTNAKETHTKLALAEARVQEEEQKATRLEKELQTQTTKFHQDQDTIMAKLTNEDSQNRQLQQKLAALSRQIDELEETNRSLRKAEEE
The description is as above.

Where a chain is given by its changes, count along the chain named. These are yes or no findings as the source states them, for the method shown. Some results given as binding are weak or reduced against the parent protein; the word gives no strength. Tags and fused reporters may be left off the sequences shown.

B1: GPBP fused to the activation domain of GAL4 (pGAD424) (protein, UniProt Q9Y5P4 1-624)
chain: MSDNQSWNSSGSEEDPETESGPPVERCGVLSKWTNYIHGWQDRWVVLKNNALSYYKSEDETEYGCRGSICLSKAVITPHDFDECRFDISVNDSVWYLRAQDPDHRQQWIDAIEQHKTESGYGSESSLRRHGSMVSLVSGASGYSATSTSSFKKGHSLREKLAEMETFRDILCRQVDTLQKYFDACADAVSKDELQRDKVVEDDEDDFPTTRSDGDFLHSTNGNKEKLFPHVTPKGINGIDFKGEAITFKATTAGILATLSHCIELMVKREDSWQKRLDKETEKKRRTEEAYKNAMTELKKKSHFGGPDYEEGPNSLINEEEFFDAVEAALDRQDKIEEQSQSEKVRLHWPTSLPSGDAFSSVGTHRFVQKPYSRSSSMSSIDLVSASDDVHRFSSQVEEMVQNHMTYSLQDVGGDANWQLVVEEGEMKVYRREVEENGIVLDPLKATHAVKGVTGHEVCNYFWNVDVRNDWETTIENFHVVETLADNAIIIYQTHKRVWPASQRDVLYLSVIRKIPALTENDPETWIVCNFSVDHDSAPLNNRCVRAKINVAMICQTLVSPPEGNQEISRDNILCKITYVANVNPGGWAPASVLRAVAKREYPKFLKRFTSYVQEKTAGKPILF
As to B1, in assay [1], the binding result is “binds”.

B2: yeast recombinant FLAG-tagged GPBP-Ala264 (natural protein, human, UniProt Q9Y5P4 1-624, looked up)
chain: B1 chain with E264A
notes: Mainly trimeric by SEC, with traces of higher and lower MW materials; source: yeast, purified
As for B2, the binding entry is “no binding” in assay [1] and “binds” in assay [2].
